Test results taken from the supplement of paper PMC7666118.
Some of the results follow.

Sequences of proteins named here, by UniProt entry; tags and fusion partners are left off. A change or cut given only in a name is not applied to a line headed by its entry.
UniProt P48739: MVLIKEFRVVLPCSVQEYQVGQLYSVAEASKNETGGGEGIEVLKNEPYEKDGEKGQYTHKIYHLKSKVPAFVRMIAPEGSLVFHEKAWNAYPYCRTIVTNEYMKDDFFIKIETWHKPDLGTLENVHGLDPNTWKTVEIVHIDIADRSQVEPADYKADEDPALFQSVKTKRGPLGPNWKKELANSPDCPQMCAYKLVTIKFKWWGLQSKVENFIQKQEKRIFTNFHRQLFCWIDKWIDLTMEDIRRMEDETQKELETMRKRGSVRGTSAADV
UniProt Q96S52: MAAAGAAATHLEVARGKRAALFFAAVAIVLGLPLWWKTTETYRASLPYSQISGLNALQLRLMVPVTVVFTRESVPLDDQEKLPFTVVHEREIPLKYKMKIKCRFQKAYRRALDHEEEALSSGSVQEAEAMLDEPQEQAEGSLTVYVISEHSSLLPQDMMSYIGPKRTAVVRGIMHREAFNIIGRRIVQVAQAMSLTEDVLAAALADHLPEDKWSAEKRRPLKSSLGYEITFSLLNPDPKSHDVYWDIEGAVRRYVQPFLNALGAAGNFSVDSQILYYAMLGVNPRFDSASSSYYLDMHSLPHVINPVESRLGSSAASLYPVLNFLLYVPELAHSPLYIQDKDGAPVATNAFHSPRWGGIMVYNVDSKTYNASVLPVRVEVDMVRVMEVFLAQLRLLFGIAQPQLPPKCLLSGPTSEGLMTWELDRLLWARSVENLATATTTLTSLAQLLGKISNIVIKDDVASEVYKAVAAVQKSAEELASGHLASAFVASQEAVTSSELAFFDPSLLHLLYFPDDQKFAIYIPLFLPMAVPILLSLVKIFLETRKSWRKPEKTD
UniProt Q969Q6: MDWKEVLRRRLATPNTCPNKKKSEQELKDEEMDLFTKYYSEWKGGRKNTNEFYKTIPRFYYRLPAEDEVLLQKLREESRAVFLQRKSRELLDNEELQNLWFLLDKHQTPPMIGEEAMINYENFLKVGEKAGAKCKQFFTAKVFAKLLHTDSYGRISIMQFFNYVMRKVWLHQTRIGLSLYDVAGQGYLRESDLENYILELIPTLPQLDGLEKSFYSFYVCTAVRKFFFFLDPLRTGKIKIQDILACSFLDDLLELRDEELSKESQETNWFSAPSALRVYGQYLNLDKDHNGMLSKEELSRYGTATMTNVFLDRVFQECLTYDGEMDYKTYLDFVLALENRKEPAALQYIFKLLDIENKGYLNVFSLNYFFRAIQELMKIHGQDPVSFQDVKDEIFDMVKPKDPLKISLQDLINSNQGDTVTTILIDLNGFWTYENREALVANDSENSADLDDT
UniProt Q9ULR3: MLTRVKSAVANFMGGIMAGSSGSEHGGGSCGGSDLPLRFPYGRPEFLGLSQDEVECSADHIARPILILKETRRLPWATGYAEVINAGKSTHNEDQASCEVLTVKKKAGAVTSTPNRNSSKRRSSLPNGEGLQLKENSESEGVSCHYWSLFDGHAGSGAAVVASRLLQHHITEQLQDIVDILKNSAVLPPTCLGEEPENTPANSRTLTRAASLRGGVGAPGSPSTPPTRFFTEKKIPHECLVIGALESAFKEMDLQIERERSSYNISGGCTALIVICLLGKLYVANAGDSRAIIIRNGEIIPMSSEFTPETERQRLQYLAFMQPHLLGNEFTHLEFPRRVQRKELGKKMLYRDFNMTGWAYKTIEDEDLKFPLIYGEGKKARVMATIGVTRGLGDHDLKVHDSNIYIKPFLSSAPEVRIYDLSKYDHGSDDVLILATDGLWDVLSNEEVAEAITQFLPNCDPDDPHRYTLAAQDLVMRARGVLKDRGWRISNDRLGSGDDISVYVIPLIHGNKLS
UniProt Q06830: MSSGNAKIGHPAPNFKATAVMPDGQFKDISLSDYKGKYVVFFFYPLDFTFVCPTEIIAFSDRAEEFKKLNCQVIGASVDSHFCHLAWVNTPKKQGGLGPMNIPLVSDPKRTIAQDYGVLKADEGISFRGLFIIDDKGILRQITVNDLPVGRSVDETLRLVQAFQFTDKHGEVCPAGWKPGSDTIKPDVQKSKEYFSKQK
UniProt Q9GZS1, whole entry: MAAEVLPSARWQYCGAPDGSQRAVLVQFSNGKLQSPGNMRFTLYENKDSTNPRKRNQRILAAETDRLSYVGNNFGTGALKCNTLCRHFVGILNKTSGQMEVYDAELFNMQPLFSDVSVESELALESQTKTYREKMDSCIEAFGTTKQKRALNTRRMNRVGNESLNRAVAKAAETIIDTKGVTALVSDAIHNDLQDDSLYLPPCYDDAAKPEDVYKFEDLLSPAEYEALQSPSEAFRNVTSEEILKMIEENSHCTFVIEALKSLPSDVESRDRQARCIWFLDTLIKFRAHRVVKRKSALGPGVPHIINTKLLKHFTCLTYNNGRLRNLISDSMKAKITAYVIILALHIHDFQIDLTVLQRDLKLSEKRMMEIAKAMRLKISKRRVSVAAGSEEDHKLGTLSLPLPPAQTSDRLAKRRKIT
UniProt Q96L50: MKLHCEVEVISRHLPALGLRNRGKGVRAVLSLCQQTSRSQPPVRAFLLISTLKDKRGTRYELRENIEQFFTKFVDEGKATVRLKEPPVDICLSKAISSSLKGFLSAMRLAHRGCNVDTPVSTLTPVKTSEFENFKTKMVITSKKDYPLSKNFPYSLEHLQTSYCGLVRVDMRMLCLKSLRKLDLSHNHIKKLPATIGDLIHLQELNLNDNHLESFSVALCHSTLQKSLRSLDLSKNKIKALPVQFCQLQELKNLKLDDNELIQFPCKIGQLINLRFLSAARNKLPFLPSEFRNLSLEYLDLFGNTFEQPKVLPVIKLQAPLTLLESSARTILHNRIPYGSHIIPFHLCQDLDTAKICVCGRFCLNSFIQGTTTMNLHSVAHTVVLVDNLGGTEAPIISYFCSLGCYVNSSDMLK
UniProt Q9BZL6: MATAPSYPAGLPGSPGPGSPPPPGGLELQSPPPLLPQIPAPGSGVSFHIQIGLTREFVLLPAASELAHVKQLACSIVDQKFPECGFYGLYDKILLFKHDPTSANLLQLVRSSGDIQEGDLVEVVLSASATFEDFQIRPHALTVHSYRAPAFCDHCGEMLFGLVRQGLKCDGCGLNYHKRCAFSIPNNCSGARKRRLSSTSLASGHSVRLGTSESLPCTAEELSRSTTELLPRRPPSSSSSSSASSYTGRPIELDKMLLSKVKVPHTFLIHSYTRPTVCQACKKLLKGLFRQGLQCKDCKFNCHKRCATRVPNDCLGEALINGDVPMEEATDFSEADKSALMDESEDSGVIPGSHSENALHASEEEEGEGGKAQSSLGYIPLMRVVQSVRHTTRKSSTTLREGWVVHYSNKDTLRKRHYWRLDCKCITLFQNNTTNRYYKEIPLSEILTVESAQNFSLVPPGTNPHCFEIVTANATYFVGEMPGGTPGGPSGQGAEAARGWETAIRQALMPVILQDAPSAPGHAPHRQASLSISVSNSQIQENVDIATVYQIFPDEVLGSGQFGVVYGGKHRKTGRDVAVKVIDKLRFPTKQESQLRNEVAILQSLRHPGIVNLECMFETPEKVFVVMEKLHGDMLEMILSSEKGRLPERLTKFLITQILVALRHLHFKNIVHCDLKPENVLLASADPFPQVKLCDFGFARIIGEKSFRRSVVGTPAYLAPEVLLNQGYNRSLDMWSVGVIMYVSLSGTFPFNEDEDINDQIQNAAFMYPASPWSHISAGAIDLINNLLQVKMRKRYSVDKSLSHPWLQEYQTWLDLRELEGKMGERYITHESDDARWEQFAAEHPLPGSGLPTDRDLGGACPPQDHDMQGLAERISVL
UniProt Q96HA1, whole entry: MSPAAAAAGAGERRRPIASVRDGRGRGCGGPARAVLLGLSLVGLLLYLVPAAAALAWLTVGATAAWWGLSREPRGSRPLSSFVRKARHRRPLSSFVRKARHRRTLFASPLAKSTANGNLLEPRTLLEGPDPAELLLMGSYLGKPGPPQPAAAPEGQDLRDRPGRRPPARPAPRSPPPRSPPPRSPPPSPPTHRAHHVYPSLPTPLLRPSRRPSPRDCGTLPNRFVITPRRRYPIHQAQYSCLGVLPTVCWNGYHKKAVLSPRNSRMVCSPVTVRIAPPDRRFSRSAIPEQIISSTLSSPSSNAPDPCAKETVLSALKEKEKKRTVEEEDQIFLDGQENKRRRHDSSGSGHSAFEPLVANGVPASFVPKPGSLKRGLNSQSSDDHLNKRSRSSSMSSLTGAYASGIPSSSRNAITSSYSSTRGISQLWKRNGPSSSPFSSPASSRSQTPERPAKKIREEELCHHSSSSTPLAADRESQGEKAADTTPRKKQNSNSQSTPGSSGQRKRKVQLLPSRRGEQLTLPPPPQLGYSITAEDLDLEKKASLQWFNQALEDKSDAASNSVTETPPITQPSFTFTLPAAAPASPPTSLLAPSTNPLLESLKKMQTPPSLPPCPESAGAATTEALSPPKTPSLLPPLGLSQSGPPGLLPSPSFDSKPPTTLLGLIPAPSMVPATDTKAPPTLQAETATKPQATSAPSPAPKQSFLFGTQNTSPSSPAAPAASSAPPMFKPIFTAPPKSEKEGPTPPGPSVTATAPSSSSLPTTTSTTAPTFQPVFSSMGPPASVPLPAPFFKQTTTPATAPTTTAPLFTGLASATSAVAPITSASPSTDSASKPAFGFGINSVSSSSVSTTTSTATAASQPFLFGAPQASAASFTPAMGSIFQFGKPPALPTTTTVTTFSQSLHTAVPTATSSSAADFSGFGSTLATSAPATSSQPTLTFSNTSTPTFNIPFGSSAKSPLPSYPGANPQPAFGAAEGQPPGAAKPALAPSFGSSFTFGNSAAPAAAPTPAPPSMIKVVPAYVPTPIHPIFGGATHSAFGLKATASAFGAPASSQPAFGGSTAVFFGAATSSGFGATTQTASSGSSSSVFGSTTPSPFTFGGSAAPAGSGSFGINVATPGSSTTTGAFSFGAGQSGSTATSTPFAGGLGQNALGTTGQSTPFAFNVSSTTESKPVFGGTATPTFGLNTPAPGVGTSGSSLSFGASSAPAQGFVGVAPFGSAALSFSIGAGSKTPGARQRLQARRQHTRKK
UniProt O43447: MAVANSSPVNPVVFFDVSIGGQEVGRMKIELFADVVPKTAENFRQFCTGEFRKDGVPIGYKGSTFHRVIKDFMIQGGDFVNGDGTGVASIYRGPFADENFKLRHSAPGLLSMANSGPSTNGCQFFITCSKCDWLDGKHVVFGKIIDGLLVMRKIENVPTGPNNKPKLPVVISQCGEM
UniProt Q8NEY8: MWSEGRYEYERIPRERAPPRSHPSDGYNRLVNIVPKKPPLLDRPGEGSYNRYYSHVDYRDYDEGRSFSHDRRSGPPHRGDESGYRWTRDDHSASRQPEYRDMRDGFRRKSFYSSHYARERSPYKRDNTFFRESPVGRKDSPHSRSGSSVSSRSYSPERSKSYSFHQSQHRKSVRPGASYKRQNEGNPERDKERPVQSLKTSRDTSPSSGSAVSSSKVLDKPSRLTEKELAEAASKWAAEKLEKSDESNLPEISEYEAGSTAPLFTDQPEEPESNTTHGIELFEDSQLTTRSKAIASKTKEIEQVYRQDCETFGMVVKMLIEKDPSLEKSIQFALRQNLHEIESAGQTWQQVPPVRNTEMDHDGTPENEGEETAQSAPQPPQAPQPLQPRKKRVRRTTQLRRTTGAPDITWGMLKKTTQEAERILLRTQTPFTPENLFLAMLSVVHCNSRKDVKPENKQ
UniProt O75928, whole entry: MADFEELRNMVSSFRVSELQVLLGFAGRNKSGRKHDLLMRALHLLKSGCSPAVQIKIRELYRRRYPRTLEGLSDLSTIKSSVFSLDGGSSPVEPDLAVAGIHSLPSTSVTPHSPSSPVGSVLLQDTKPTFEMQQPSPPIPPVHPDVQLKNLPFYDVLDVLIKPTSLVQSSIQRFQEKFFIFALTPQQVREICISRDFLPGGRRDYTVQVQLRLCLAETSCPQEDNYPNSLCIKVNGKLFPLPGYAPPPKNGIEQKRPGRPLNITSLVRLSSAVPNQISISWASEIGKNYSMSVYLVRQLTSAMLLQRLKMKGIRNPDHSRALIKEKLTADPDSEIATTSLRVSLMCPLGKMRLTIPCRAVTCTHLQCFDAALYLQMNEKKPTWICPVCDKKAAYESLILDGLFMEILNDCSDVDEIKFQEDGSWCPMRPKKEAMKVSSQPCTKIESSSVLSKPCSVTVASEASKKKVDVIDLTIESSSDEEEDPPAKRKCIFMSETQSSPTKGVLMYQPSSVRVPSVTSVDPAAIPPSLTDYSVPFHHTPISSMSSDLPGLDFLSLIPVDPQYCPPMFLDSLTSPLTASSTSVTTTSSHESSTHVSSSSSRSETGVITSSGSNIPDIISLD
UniProt O15173: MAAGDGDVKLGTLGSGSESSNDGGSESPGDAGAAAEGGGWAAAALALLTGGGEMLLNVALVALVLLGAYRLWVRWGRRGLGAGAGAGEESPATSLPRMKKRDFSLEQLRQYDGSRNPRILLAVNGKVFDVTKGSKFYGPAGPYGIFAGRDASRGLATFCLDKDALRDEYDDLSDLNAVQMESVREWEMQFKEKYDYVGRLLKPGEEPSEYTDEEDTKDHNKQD
UniProt Q9NR33: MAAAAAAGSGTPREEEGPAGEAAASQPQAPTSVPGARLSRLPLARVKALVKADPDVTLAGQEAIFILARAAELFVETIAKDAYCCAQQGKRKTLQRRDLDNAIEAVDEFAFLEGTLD

Compound: COc1ccc(Cn2ccc3ccc(C(=O)NO)cc32)cc1
Assay: dose-dependent thermal stabilisation call (2D-TPP, DLPTP, 10% FDR) (binary (1 = stabilised)); higher = stabilised by the compound
Details: system: HL-60 intact cells; concentration range 0.04-10 µM

Target | dose-dependent thermal stabilisation call
PPIL3 (UniProt Q9H2H8) | inactive: 0
PLXNB1 (UniProt O43157) | inactive: 0
PPP1R7 (UniProt Q15435) | inactive: 0
PLCL2 (UniProt Q9UPR0) | inactive: 0
PPIL4 (UniProt Q8WUA2) | inactive: 0
PITPNB (UniProt P48739) | inactive: 0
PIGS (UniProt Q96S52) | inactive: 0
POLRMT (UniProt O00411) | inactive: 0
PPP2R3C (UniProt Q969Q6) | inactive: 0
POLR1B (UniProt Q9H9Y6) | inactive: 0
PPM1H (UniProt Q9ULR3) | inactive: 0
PIGT (UniProt Q969N2) | inactive: 0
PIP3AP (UniProt Q9C0I1) | inactive: 0
PRDX1 (UniProt Q06830) | inactive: 0
POLG2 (UniProt Q9UHN1) | inactive: 0
POLR1E (UniProt Q9GZS1) | inactive: 0
POLR3E (UniProt Q9NVU0) | inactive: 0
PPIL5 (UniProt Q96L50) | inactive: 0
PRKD2 (UniProt Q9BZL6) | inactive: 0

Another view of part of the listing above.

| Target | dose-dependent thermal stabilisation call |
| --- | --- |
| PRDX1 (UniProt Q06830) | inactive: 0 |
| POLG2 (UniProt Q9UHN1) | inactive: 0 |

Remaining list, next part.

Target | dose-dependent thermal stabilisation call
PIK3C2A (UniProt O00443) | inactive: 0
PRKD3 (UniProt O94806) | inactive: 0
POM121 (UniProt Q96HA1) | inactive: 0
PPIH (UniProt O43447) | inactive: 0
PPHLN1 (UniProt Q8NEY8) | inactive: 0
PPP2R4 (UniProt Q15257) | inactive: 0
PNKP (UniProt Q96T60) | inactive: 0
PPP1CB (UniProt P62140) | inactive: 0
PIAS2 (UniProt O75928) | inactive: 0
PIK3R1 (UniProt P27986) | inactive: 0
PGRMC2 (UniProt O15173) | inactive: 0
PREP (UniProt P48147) | inactive: 0
PPFIBP1 (UniProt Q86W92) | inactive: 0
PIGG (UniProt Q5H8A4) | inactive: 0
PPP4R1 (UniProt Q8TF05) | inactive: 0
PRKCD (UniProt Q05655) | inactive: 0
POLE4 (UniProt Q9NR33) | inactive: 0
PRDM10 (UniProt Q9NQV6) | inactive: 0
